pIC50: −log10 of the molar value. Part of at least one peptide drawing is inferred or uncertain, most often the ends. At least one compound was matched to its structure with a doubt left. *1 amine or outer side, *2 acyl side, *3 side chain or, on linkers, in order; H or OH if unused. Where a SMILES comes first, the peptide text is derived from it. [ ]: non-standard residue; d: D form. Phe(4-(trans-4-COOH-cHex)) = N[C@@H](Cc1ccc([C@H]2CC[C@H](C(=O)O)CC2)cc1)C(=O)O; Phe(4-(5-CO2H-2-pyrimidyl)) = N[C@@H](Cc1ccc(-c2ncc(C(=O)O)cn2)cc1)C(=O)O; Bip(4'-COOH) = N[C@@H](Cc1ccc(-c2ccc(C(=O)O)cc2)cc1)C(=O)O; 1Nal(3S-Me) = C[C@@H](c1cccc2ccccc12)[C@H](N)C(=O)O; Phe(4-COOH) = N[C@@H](Cc1ccc(C(=O)O)cc1)C(=O)O; Trp(6-F) = N[C@@H](Cc1c[nH]c2cc(F)ccc12)C(=O)O; X14 = C[N+](C)(C)CC[C@@H](N[*:1])C(=O)[*:2]; Pro(4R-NH2) = N[C@H]1CN[C@H](C(=O)O)C1; hTyr = N[C@@H](CCc1ccc(O)cc1)C(=O)O; X9 = CCCC[C@](C)(N[*:1])C(=O)[*:2]; hCha = N[C@@H](CCC1CCCCC1)C(=O)O; 4Pal = N[C@@H](Cc1ccncc1)C(=O)O; dDab = NCC[C@@H](N)C(=O)O; dNMeA = CN[C@H](C)C(=O)O; Dap = NC[C@H](N)C(=O)O
Target: T1, Recombinant human IL-1β (Homo sapiens, UniProt P01584)
T1 construct: purchased BioLegend 579404
Assay: IL-6 assay in MRC5 cells: inhibition of IL-1β induced IL-6 secretion (AlphaLISA)
Format: cell-based
Conditions: inhibition of IL-1β induced IL-6 secretion in MRC5 cells
Protocol: Procedure for IL-6 Assay in MRC5 Cells
The inhibition of IL-1β induced IL-6 secretion was evaluated in MRC5 cells. Recombinant human IL-1β (BioLegend 579404) at 2×EC80 concentration was prepared in seeding medium, EMEM (ATCC 30-2003) with 0.025% BSA (Sigma A9576), 1× penicillin/streptomycin (Gibco 15070-063), 1×NEAA (Gibco 11140-050), 1× GlutaMax (Gibco 35050-061), and 1× sodium pyruvate (Gibco 11360-070). 20 μL of IL-1β was added to a 384-well collagen-coated plate (Corning 354664) and pre-incubated at ambient temperature for 1 hour with 200 nL of compound dispensed using an ECHO 555 liquid handler. Human lung fibroblast MRC5 cells (ATCC CCL-171) were added at a density of 3000 cells/20 μL per well. The cells were prepared by passaging three times in growth medium, EMEM (ATCC 30-2003) with 10% fetal bovine serum (Gibco 16140-071), 1× penicillin/streptomycin (Gibco 15070-063), 1×NEAA (Gibco 11140-050), 1× GlutaMax (Gibco 35050-061), and 1× sodium pyruvate (Gibco 11360-070) in collagen-coated T175 flasks (Greiner 661950) and harvested in seeding medium after 5 minutes of 0.25% trypsin-EDTA (Gibco 25200-056) digestion. The 384-well collagen-coated plate, containing a final volume of 40 μL, was incubated at 37° C., 5% CO2 overnight. 5 μL of the conditioned medium was transferred to a 384-well AlphaLISA plate (PerkinElmer 6005350) for detection of IL-6 using the human AlphaLISA IL-6 kit (PerkinElmer AL223F) as per the manufacturer's protocol. 20 μL of the acceptor bead/biotinylated antibody mix was added to the 384-well AlphaLISA plate and incubated for 1 hour at ambient temperature. The donor bead mix was protected from light and 25 μL was added to the plate and incubated for 30 minutes at ambient temperature. The AlphaLISA plate was read on an EnVision multimode plate reader (Perkin Elmer model 2104) using the AlphaScreen setting (laser exc at 680 nm and emis at 570 nm). Dose response curves and IC50 values were analyzed using a 4-parameter logistic equation in Spotfire software (Tibco, Palo Alto, CA).

Amino acid sequences for entries named in this document (tags omitted). Residues count along the entry.
UniProt P01584, 117-269: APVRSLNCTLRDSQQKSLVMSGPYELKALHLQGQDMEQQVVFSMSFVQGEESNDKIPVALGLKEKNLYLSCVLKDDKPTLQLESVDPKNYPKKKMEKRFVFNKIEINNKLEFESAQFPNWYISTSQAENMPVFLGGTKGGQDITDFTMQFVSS

[1] = IL-1β pre-incubated 1 hour with compound

Structure (SMILES)	pIC50 [1]	pIC50
C[C@@H]1C(=O)NCC(=O)N[C@@H](Cc2ccc(-c3ccc(C(=O)O)cc3)cc2)C(=O)N[C@@H](Cc2c[nH]c3ccccc23)C(=O)N[C@@H](CN)C(=O)N[C@H](C)C(=O)N[C@@H](CCc2ccc(O)cc2)C(=O)N[C@@H](Cc2ccc(-c3ncc(C(=O)O)cn3)cc2)C(=O)N[C@@H](Cc2c[nH]c3ccccc23)C(=O)N[C@@H](Cc2ccc(C(=O)O)cc2)C(=O)NCC(=O)N2C[C@H](N)C[C@H]2C(=O)N[C@@H]([C@@H](C)c2cccc3ccccc23)C(=O)N[C@@H](CC(=O)O)C(=O)N1C [Example 86] (cyclo(D[dNMeA]G[Bip(4'-COOH)]W[Dap][dA][hTyr][Phe(4-(5-CO2H-2-pyrimidyl))]W[Phe(4-COOH)]G[Pro(4R-NH2)][1Nal(3S-Me)]))	10.65	
C[C@@H]1C(=O)NCC(=O)N[C@@H](Cc2ccc(-c3ccc(C(=O)O)cc3)cc2)C(=O)N[C@@H](Cc2c[nH]c3ccccc23)C(=O)N[C@@H](CN)C(=O)N[C@H](C)C(=O)N[C@@H](CCc2ccc(O)cc2)C(=O)N[C@@H](Cc2ccc(-c3ncc(C(=O)O)cn3)cc2)C(=O)N[C@@H](Cc2c[nH]c3ccccc23)C(=O)N[C@@H](Cc2ccc(C(=O)O)cc2)C(=O)NCC(=O)N2C[C@H](N)C[C@H]2C(=O)N[C@@H]([C@@H](C)c2cccc3ccccc23)C(=O)N[C@@H](CC(=O)O)C(=O)N1C [Example 87] (cyclo(D[dNMeA]G[Bip(4'-COOH)]W[Dap][dA][hTyr][Phe(4-(5-CO2H-2-pyrimidyl))]W[Phe(4-COOH)]G[Pro(4R-NH2)][1Nal(3S-Me)]))	9.85	
C[C@@H]1C(=O)NCC(=O)N[C@@H](Cc2ccc(-c3ccc(C(=O)O)cc3)cc2)C(=O)N[C@@H](Cc2ccncc2)C(=O)N[C@@H](CO)C(=O)N[C@H](CC[N+](C)(C)C)C(=O)N[C@@H](CCC2CCCCC2)C(=O)N[C@@H](Cc2ccc([C@H]3CC[C@H](C(=O)O)CC3)cc2)C(=O)N[C@@H](Cc2c[nH]c3cc(F)ccc23)C(=O)N[C@@H](Cc2ccc(C(=O)O)cc2)C(=O)NCC(=O)N2C[C@H](N)C[C@H]2C(=O)N[C@@H]([C@@H](C)c2cccc3ccccc23)C(=O)N[C@@H](CC(=O)O)C(=O)N1C [Example 194] (cyclo([Phe(4-(trans-4-COOH-cHex))][Trp(6-F)][Phe(4-COOH)]G[Pro(4R-NH2)][1Nal(3S-Me)]D[dNMeA]G[Bip(4'-COOH)][4Pal]S[X14][hCha]))		10.82
CCCC[C@]1(C)NC(=O)[C@@H](CCN)NC(=O)CNC(=O)[C@H](Cc2ccncc2)NC(=O)[C@H](Cc2ccc(-c3ccc(C(=O)O)cc3)cc2)NC(=O)CNC(=O)[C@@H](C)N(C)C(=O)[C@H](CC(=O)O)NC(=O)[C@H]([C@@H](C)c2cccc3ccccc23)NC(=O)[C@@H]2C[C@@H](N)CN2C(=O)CNC(=O)[C@H](Cc2ccc(C(=O)O)cc2)NC(=O)[C@H](Cc2c[nH]c3ccccc23)NC(=O)[C@H](Cc2ccc([C@H]3CC[C@H](C(=O)O)CC3)cc2)NC1=O [Example 195] (cyclo([Phe(4-(trans-4-COOH-cHex))]W[Phe(4-COOH)]G[Pro(4R-NH2)][1Nal(3S-Me)]D[dNMeA]G[Bip(4'-COOH)][4Pal]G[dDab][X9]))		10.66

Source: patent US20230406885A1, “CYCLIC PEPTIDES FOR TRAPPING INTERLEUKIN-1 BETA” (MERCK SHARP & DOHME LLC, priority 2022, published 2023)
